Like-named read-outs stand apart in the source and are kept apart here. No constants are given. Whether binding was seen depends on the method and setting. For some of these results: Binding seen in cells or lysates may run through a third protein. Some entries that bind do so weakly or less than the wild type.
What was measured:
[1] = molecular target: VCP-D592AbK (VCP with AbK incorporated at D592, C-terminal 12X-His and 3X-FLAG tags) (human) (UniProt P55072); test: cross-linking
[2] = molecular target: VCP-L278AbK (VCP with AbK incorporated at L278, C-terminal 12X-His and 3X-FLAG tags) (human) (UniProt P55072); test: cross-linking
[3] = molecular target: VCP-L278AbK (VCP with AbK incorporated at L278, C-terminal 12X-His and 3X-FLAG tags) (human) (UniProt P55072); test: cross-linking; remark: listed apart in the source
[4] = molecular target: VCP-D592AbK (VCP with AbK incorporated at D592, C-terminal 12X-His and 3X-FLAG tags) (human) (UniProt P55072); test: cross-linking; remark: listed apart in the source
[5] = molecular target: VCPIP1 ΔUBX-L (aa 1-743) (human) (UniProt Q96JH7); test: mass photometry

Amino acid sequences for entries named in this document (tags omitted). A change or cut given only in a name is not applied to a line headed by its entry. Chains listed by the source or under a name are the forms on record and can include a tag or linker.
VCP-D592AbK (VCP with AbK incorporated at D592, C-terminal 12X-His and 3X-FLAG tags) (P55072, form named): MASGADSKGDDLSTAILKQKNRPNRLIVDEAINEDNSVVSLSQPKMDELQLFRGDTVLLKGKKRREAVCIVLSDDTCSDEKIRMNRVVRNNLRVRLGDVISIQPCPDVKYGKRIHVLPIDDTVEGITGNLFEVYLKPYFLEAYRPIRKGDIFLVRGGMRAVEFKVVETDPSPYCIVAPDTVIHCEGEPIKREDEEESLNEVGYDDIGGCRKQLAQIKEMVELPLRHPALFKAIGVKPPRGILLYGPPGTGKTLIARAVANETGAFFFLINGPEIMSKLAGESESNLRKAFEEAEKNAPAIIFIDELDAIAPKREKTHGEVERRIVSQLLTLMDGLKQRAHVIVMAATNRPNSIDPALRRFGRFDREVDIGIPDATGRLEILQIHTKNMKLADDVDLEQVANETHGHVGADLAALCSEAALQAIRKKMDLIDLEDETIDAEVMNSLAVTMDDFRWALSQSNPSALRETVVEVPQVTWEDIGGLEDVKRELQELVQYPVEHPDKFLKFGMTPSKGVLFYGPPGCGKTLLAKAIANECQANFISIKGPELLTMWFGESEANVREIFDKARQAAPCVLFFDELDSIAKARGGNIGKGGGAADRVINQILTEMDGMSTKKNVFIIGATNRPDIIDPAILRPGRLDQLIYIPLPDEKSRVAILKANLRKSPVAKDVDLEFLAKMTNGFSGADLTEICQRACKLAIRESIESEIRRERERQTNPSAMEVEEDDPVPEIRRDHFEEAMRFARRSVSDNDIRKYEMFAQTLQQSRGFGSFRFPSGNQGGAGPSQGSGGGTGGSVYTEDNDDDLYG
VCP-L278AbK (VCP with AbK incorporated at L278, C-terminal 12X-His and 3X-FLAG tags) (P55072, form named): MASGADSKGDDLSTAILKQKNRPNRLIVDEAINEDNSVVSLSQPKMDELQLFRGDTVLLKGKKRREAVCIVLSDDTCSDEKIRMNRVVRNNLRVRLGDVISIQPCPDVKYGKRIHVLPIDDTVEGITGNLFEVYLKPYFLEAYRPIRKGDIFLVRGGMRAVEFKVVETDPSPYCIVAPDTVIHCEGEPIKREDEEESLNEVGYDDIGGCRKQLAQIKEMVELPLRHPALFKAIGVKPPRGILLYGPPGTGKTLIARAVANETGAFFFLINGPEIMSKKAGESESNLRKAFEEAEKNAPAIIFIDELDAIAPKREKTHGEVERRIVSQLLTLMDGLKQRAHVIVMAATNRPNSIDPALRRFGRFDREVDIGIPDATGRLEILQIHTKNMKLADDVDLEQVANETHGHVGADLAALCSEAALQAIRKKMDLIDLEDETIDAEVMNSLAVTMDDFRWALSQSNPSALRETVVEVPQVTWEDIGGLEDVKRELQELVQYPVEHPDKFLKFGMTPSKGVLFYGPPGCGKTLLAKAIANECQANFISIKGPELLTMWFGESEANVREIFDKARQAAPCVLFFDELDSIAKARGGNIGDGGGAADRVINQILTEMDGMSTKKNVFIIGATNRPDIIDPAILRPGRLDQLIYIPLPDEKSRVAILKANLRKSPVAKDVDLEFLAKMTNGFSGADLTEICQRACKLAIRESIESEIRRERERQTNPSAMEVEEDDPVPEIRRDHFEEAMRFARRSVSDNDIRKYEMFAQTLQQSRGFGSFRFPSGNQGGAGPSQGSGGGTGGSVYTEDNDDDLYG
UniProt Q70CQ2: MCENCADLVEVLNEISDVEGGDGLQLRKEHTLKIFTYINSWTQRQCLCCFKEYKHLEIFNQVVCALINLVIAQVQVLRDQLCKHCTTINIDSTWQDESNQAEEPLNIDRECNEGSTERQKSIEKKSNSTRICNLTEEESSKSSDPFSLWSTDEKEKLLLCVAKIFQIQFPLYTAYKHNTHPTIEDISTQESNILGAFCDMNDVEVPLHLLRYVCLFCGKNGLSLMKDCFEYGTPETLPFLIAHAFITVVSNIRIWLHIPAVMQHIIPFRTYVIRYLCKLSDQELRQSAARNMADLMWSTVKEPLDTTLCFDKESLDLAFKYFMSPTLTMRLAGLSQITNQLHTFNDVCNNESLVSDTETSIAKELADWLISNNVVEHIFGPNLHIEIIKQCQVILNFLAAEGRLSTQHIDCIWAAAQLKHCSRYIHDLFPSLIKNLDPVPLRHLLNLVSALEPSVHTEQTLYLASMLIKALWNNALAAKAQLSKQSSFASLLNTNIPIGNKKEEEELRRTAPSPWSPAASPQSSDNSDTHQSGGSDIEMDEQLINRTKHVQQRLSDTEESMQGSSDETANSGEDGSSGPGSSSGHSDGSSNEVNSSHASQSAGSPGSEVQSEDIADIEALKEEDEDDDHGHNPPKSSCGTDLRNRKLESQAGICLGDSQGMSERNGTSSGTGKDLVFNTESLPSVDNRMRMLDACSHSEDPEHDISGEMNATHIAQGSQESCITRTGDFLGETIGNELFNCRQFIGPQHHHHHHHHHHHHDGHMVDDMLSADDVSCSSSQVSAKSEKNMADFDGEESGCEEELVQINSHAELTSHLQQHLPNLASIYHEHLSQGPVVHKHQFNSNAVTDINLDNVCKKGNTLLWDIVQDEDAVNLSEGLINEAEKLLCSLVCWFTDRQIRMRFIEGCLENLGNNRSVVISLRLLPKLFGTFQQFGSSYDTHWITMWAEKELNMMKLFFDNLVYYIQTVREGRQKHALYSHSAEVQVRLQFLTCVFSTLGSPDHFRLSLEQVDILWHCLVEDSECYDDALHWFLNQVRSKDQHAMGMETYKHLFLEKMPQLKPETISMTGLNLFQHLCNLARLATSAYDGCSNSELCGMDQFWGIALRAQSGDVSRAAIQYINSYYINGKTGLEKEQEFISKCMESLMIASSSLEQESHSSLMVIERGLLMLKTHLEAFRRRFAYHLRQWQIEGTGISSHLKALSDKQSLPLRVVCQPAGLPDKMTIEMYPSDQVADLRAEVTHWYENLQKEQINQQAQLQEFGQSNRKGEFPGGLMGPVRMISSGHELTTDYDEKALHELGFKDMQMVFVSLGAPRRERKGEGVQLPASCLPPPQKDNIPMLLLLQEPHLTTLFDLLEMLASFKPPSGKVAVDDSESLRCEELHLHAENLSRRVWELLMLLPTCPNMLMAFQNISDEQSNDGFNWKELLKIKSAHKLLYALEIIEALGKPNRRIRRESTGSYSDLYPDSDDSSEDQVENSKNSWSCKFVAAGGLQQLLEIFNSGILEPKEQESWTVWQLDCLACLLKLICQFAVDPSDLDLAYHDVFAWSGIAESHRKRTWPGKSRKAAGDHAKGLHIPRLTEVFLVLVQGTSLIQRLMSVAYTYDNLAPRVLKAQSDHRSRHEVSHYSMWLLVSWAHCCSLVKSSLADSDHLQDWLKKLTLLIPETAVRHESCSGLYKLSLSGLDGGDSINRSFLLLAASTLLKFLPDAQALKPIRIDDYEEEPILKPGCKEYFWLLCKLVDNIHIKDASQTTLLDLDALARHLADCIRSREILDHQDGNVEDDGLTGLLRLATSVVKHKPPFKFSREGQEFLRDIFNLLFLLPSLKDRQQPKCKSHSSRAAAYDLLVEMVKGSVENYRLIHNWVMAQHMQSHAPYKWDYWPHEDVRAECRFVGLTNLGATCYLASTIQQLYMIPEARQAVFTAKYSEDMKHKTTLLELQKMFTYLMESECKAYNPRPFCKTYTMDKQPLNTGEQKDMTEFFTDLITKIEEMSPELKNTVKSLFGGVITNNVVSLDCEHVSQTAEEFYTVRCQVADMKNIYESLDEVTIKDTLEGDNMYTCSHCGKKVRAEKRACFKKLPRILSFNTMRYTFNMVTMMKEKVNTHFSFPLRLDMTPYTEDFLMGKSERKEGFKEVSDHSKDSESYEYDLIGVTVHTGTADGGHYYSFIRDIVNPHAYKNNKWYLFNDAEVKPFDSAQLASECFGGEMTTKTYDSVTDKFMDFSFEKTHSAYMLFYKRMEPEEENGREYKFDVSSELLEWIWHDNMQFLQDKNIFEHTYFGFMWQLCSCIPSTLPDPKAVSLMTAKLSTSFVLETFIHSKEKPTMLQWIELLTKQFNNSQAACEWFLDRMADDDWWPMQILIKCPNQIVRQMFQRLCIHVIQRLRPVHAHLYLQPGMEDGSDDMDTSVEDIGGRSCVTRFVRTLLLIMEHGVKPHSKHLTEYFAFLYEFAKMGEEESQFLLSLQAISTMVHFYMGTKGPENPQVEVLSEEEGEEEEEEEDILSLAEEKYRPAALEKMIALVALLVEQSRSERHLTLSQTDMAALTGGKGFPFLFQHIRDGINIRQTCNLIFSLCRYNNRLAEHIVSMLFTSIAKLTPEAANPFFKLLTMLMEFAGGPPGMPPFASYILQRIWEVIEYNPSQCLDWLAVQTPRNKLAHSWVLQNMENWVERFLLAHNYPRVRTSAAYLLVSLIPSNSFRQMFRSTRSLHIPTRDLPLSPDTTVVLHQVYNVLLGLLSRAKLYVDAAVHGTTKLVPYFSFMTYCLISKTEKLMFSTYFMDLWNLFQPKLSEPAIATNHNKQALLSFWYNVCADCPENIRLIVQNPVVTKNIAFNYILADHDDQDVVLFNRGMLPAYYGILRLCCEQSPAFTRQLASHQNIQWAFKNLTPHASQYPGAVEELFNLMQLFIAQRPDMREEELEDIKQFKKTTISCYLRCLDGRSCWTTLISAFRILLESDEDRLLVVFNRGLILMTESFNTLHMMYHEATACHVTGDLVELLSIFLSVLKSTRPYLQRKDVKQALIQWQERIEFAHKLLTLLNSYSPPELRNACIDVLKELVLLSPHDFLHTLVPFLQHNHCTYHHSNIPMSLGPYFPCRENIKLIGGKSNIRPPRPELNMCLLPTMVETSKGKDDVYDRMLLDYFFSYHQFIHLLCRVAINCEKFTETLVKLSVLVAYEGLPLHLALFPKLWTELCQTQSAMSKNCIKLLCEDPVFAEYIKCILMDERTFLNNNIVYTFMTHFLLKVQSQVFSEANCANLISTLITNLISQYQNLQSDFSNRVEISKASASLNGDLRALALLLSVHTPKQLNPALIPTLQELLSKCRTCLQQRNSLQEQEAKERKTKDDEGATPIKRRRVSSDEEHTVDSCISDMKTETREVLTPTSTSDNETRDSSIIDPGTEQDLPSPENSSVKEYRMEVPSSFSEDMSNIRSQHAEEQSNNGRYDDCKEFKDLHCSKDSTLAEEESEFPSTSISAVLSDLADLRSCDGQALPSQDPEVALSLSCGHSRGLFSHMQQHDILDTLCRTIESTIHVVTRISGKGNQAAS
UniProt P54252: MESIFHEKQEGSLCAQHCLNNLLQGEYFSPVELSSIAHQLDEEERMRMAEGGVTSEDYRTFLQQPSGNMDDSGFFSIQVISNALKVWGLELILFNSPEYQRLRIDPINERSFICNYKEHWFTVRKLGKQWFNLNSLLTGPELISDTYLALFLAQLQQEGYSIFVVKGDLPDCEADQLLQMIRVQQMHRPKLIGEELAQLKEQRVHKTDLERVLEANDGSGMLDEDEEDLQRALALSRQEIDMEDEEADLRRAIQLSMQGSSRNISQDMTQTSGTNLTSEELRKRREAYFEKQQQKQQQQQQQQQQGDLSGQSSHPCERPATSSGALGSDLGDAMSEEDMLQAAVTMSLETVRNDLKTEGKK

With “UBP34 (from UniProt Q70CQ2 1-3546) (enzyme)” the binding [1] was “binds”.

“ataxin-3 (from UniProt P54252 1-361) (enzyme)” was tested, and the binding [1] was “no binding” and the binding [2] was “no binding”.

With “USP9X (from UniProt Q93008 1-2554) (enzyme)” the binding [2] was “binds”.

B1: NSF1C/p47 (protein, UniProt Q9UNZ2 1-370)
chain: MAAERQEALREFVAVTGAEEDRARFFLESAGWDLQIALASFYEDGGDEDIVTISQATPSSVSRGTAPSDNRVTSFRDLIHDQDEDEEEEEGQRFYAGGSERSGQQIVGPPRKKSPNELVDDLFKGAKEHGAVAVERVTKSPGETSKPRPFAGGGYRLGAAPEEESAYVAGEKRQHSSQDVHVVLKLWKSGFSLDNGELRSYQDPSNAQFLESIRRGEVPAELRRLAHGGQVNLDMEDHRDEDFVKPKGAFKAFTGEGQKLGSTAPQVLSTSSPAQQAENEAKASSSILIDESEPTTNIQIRLADGGRLVQKFNHSHRISDIRLFIVDARPAMAATSFILMTTFPNKELADESQTLKEANLLNAVIVQRLT
B1 was tested, and the binding [3] was “binds”.

B2: UBP19 (enzyme, UniProt O94966 1-1318)
chain: MSGGASATGPRRGPPGLEDTTSKKKQKDRANQESKDGDPRKETGSRYVAQAGLEPLASGDPSASASHAAGITGSRHRTRLFFPSSSGSASTPQEEQTKEGACEDPHDLLATPTPELLLDWRQSAEEVIVKLRVGVGPLQLEDVDAAFTDTDCVVRFAGGQQWGGVFYAEIKSSCAKVQTRKGSLLHLTLPKKVPMLTWPSLLVEADEQLCIPPLNSQTCLLGSEENLAPLAGEKAVPPGNDPVSPAMVRSRNPGKDDCAKEEMAVAADAATLVDEPESMVNLAFVKNDSYEKGPDSVVVHVYVKEICRDTSRVLFREQDFTLIFQTRDGNFLRLHPGCGPHTTFRWQVKLRNLIEPEQCTFCFTASRIDICLRKRQSQRWGGLEAPAARVGGAKVAVPTGPTPLDSTPPGGAPHPLTGQEEARAVEKDKSKARSEDTGLDSVATRTPMEHVTPKPETHLASPKPTCMVPPMPHSPVSGDSVEEEEEEEKKVCLPGFTGLVNLGNTCFMNSVIQSLSNTRELRDFFHDRSFEAEINYNNPLGTGGRLAIGFAVLLRALWKGTHHAFQPSKLKAIVASKASQFTGYAQHDAQEFMAFLLDGLHEDLNRIQNKPYTETVDSDGRPDEVVAEEAWQRHKMRNDSFIVDLFQGQYKSKLVCPVCAKVSITFDPFLYLPVPLPQKQKVLPVFYFAREPHSKPIKFLVSVSKENSTASEVLDSLSQSVHVKPENLRLAEVIKNRFHRVFLPSHSLDTVSPSDTLLCFELLSSELAKERVVVLEVQQRPQVPSVPISKCAACQRKQQSEDEKLKRCTRCYRVGYCNQLCQKTHWPDHKGLCRPENIGYPFLVSVPASRLTYARLAQLLEGYARYSVSVFQPPFQPGRMALESQSPGCTTLLSTGSLEAGDSERDPIQPPELQLVTPMAEGDTGLPRVWAAPDRGPVPSTSGISSEMLASGPIEVGSLPAGERVSRPEAAVPGYQHPSEAMNAHTPQFFIYKIDSSNREQRLEDKGDTPLELGDDCSLALVWRNNERLQEFVLVASKELECAEDPGSAGEAARAGHFTLDQCLNLFTRPEVLAPEEAWYCPQCKQHREASKQLLLWRLPNVLIVQLKRFSFRSFIWRDKINDLVEFPVRNLDLSKFCIGQKEEQLPSYDLYAVINHYGGMIGGHYTACARLPNDRSSQRSDVGWRLFDDSTVTTVDESQVVTRYAYVLFYRRRNSPVERPPRAGHSEHHPDLGPAAEAAASQASRIWQELEAEEEPVPEGSGPLGPWGPQDWVGPLPRGPTTPDEGCLRYFVLGTVAALVALVLNVFYPLVSQSRWR
For B2, the binding [4] was “binds”.

B3: UBXN1 (protein, UniProt Q04323 1-297)
chain: MAELTALESLIEMGFPRGRAEKALALTGNQGIEAAMDWLMEHEDDPDVDEPLETPLGHILGREPTSSEQGGLEGSGSAAGEGKPALSEEERQEQTKRMLELVAQKQREREEREEREALERERQRRRQGQELSAARQRLQEDEMRRAAEERRREKAEELAARQRVREKIERDKAERAKKYGGSVGSQPPPVAPEPGPVPSSPSQEPPTKREYDQCRIQVRLPDGTSLTQTFRAREQLAAVRLYVELHRGEELGGGQDPVQLLSGFPRRAFSEADMERPLQELGLVPSAVLIVAKKCPS
B3 was tested, and the binding [4] was “binds”.

B4: USP13 (enzyme, UniProt Q92995 1-863)
chain: MQRRGALFGMPGGSGGRKMAAGDIGELLVPHMPTIRVPRSGDRVYKNECAFSYDSPNSEGGLYVCMNTFLAFGREHVERHFRKTGQSVYMHLKRHVREKVRGASGGALPKRRNSKIFLDLDTDDDLNSDDYEYEDEAKLVIFPDHYEIALPNIEELPALVTIACDAVLSSKSPYRKQDPDTWENELPVSKYANNLTQLDNGVRIPPSGWKCARCDLRENLWLNLTDGSVLCGKWFFDSSGGNGHALEHYRDMGYPLAVKLGTITPDGADVYSFQEEEPVLDPHLAKHLAHFGIDMLHMHGTENGLQDNDIKLRVSEWEVIQESGTKLKPMYGPGYTGLKNLGNSCYLSSVMQAIFSIPEFQRAYVGNLPRIFDYSPLDPTQDFNTQMTKLGHGLLSGQYSKPPVKSELIEQVMKEEHKPQQNGISPRMFKAFVSKSHPEFSSNRQQDAQEFFLHLVNLVERNRIGSENPSDVFRFLVEERIQCCQTRKVRYTERVDYLMQLPVAMEAATNKDELIAYELTRREAEANRRPLPELVRAKIPFSACLQAFSEPENVDDFWSSALQAKSAGVKTSRFASFPEYLVVQIKKFTFGLDWVPKKFDVSIDMPDLLDINHLRARGLQPGEEELPDISPPIVIPDDSKDRLMNQLIDPSDIDESSVMQLAEMGFPLEACRKAVYFTGNMGAEVAFNWIIVHMEEPDFAEPLTMPGYGGAASAGASVFGASGLDNQPPEEIVAIITSMGFQRNQAIQALRATNNNLERALDWIFSHPEFEEDSDFVIEMENNANANIISEAKPEGPRVKDGSGTYELFAFISHMGTSTMSGHYICHIKKEGRWVIYNDHKVCASERPPKDLGYMYFYRRIPS
With B4 the binding [4] was “no binding” and the binding [3] was “no binding”.

B5: VCPIP1 ΔUBX-L (aa 1-743) (domain or fragment, UniProt Q96JH7 1-743)
chain: MSQPPPPPPPLPPPPPPPEAPQTPSSLASAAASGGLLKRRDRRILSGSCPDPKCQARLFFPASGSVSIECTECGQRHEQQQLLGVEEVTDPDVVLHNLLRNALLGVTGAPKKNTELVKVMGLSNYHCKLLSPILARYGMDKQTGRAKLLRDMNQGELFDCALLGDRAFLIEPEHVNTVGYGKDRSGSLLYLHDTLEDIKRANKSQECLIPVHVDGDGHCLVHAVSRALVGRELFWHALRENLKQHFQQHLARYQALFHDFIDAAEWEDIINECDPLFVPPEGVPLGLRNIHIFGLANVLHRPIILLDSLSGMRSSGDYSATFLPGLIPAEKCTGKDGHLNKPICIAWSSSGRNHYIPLVGIKGAALPKLPMNLLPKAWGVPQDLIKKYIKLEEDGGCVIGGDRSLQDKYLLRLVAAMEEVFMDKHGIHPSLVADVHQYFYRRTGVIGVQPEEVTAAAKKAVMDNRLHKCLLCGALSELHVPPEWLAPGGKLYNLAKSTHGQLRTDKNYSFPLNNLVCSYDSVKDVLVPDYGMSNLTACNWCHGTSVRKVRGDGSIVYLDGDRTNSRSTGGKCGCGFKHFWDGKEYDNLPEAFPITLEWGGRVVRETVYWFQYESDSSLNSNVYDVAMKLVTKHFPGEFGSEILVQKVVHTILHQTAKKNPDDYTPVNIDGAHAQRVGDVQGQESESQLPTKIILTGQKTKTLHKEELNMSKTERTIQQNITEQASVMQKRKTEKLKQEQKGQP
B5 was tested, and the binding [5] was “no binding (tested: 100 nM)”.
